One assay deals with GST–PICK1 ΔCT (UniProt Q9EP80). The assay is described as follows: pull-down; GST–PICK1 wild type or truncation mutants incubated with purified his6-tagged flagCdc42 or mycRac1; western blotting with anti-flag or anti-myc; both purified. For orientation: In western blotting, separated proteins are transferred to a membrane and probed.
A further assay has as its target GST–PICK1 ΔNT (UniProt Q9EP80). The description is as above.

Sequences of proteins named here, by UniProt entry; tags and fusion partners are left off.
UniProt P60953: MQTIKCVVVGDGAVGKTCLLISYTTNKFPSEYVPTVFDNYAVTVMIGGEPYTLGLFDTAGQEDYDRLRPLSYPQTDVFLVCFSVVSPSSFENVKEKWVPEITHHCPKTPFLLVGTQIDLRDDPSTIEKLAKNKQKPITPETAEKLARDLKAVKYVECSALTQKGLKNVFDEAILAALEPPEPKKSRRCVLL

No constants are given. Whether binding was seen depends on the method and setting. Binding calls can cover weak binding; strength is not graded here.

Take “his6-tagged flagCdc42 (from UniProt P60953 1-191)”: the binding entry with GST–PICK1 ΔCT and with GST–PICK1 ΔNT was “binds” throughout.
